According to publication PMC12670160, “A drug-repurposing screen of FDA- and EMA-approved drugs identifies two NF-κB inhibitors active against eumycetoma” (Journal of Antimicrobial Chemotherapy, 2025):
Where a name gives a salt, the structure may show the parent alone. Hit rate of the full screen: of about 5,300 compounds, about 130 (2.5%) showed an effect of 50% or more. The list shows a part of the results.

The compounds below were run on M. mycetomatis strain mm55. Conditions: primary screen, metabolic activity vs growth control; 96 h, 2 µM; inhibitor.
In the case of `Cc1cc(C)cc(NC(=O)Cc2ccc(OC(C)(C)C(=O)O)cc2)c1` [ONC0004554, efaproxiral sodium], the “% viability” value is reported as 66.87%.
`Cc1ccc(O)c([C@H](CCN(C(C)C)C(C)C)c2ccccc2)c1` [ONC0005209, tolterodine tartrate detrol la] was tested, and the “% viability” value was 113.4%.
In the case of `Oc1c(Cl)cc(Cl)cc1Sc1cc(Cl)cc(Cl)c1O` [ONC0003234, bithionol], the “% viability” value is reported as 107%.
With `C=CCc1ccccc1OCC(O)CNC(C)C` (centres unmarked) [ONC0005361, alprenolol hydrochloride] the “% viability” value was 68.22%.
With `NC[C@H]1CC[C@H](C(=O)O)CC1` [ONC0000592, tranexamic acid] the “% viability” value was 200.2%.
With `CCCCOc1ccc(CC(=O)NO)cc1` [ONC0000683, bufexamac] the “% viability” value was 91.55%.
For `CN(C)c1ccc(/C=C2\C(=O)Nc3ccccc32)cc1` [ONC0001464, su4312], the “% viability” value was 70.21%.
In the case of `C[C@@H]1COCCN1c1cc(C2(S(C)(=N)=O)CC2)nc(-c2ccnc3[nH]ccc23)n1` (some centres unmarked) [ONC0004545, azd6738], the “% viability” value is reported as 60.6%.
With `CCCN1C[C@@H](NS(=O)(=O)N(CC)CC)C[C@@H]2Cc3c(O)cccc3C[C@H]21` [ONC0000942, quinagolide hydrochloride] the “% viability” value was 65.37%.
In the case of `O=C(O)c1cc(=O)c2c(OCC(O)COc3cccc4oc(C(=O)O)cc(=O)c34)cccc2o1` [ONC0000338, cromolyn sodium], the “% viability” value is reported as 70.41%.
In the case of `COc1cc2c(NC3CCN(C4CCCCC4)CC3)nc(N3CCCN(C(C)C)CC3)nc2cc1OCCCN1CCCCC1` [ONC0000816, unc0646], the “% viability” value is reported as 85.65%.
In the case of `C[C@]12CC[C@@H](O)C[C@@H]1CC[C@@H]1[C@@H]2CC[C@]2(C)C(c3ccccc3)=CC[C@@H]12` [ONC0001294, 17pa], the “% viability” value is reported as 69.25%.
For `CS(=O)(=O)c1ccc(Cn2c3c(c4cc(F)cc(F)c42)CCCC3CC(=O)O)cc1` (centres unmarked) [ONC0000044, l670596], the “% viability” value was 95.88%.
In the case of `Cc1c(CC(C)(C)C(=O)O)n(Cc2ccc(Cl)cc2)c2ccc(F)cc12` [ONC0003788, l655240], the “% viability” value is reported as 57.6%.
For `Cc1c(Cl)cccc1S(=O)(=O)Nc1nc(NCCc2ccccc2)nc2c1CN(Cc1ccccc1)CC2` [ONC0000758, camkiiin1], the “% viability” value was 78.86%.
In the case of `CC(=O)c1ccc2c(c1)N(CCCN1CCN(CCO)CC1)c1ccccc1S2` [ONC0002454, acetophenazine maleate], the “% viability” value is reported as 114.8%.
With `O=C1NC(c2ccccc2)(c2ccccc2)C(=O)N1COP(=O)(O)O` [ONC0003342, fosphenytoin disodium salt hydrate] the “% viability” value was 79.09%.
`O[C@@H]1CO[C@H]2[C@@H]1OC[C@@H]2O` [ONC0001193, isosorbide] was tested, and the “% viability” value was 79.02%.
With `COc1cc2c(NC3CCN(C)CC3)nc(N3CCCN(C)CC3)nc2cc1OCCOCCN(C)C` [ONC0002054, unc0321] the “% viability” value was 65.32%.
With `COc1cccc2c1C(=O)c1c(O)c3c(c(O)c1C2=O)C[C@@](O)(/C(CO)=N/NC(=O)CCCCCN1C(=O)C=CC1=O)C[C@@H]3O[C@H]1C[C@H](N)[C@H](O)[C@H](C)O1` [ONC0000790, aldoxorubicin] the “% viability” value was 93.96%.
In the case of `CCC(C)CNCC(=O)N1CCc2sccc2C1COc1cccc(C)c1` (centres unmarked) [ONC0000211, ruski43], the “% viability” value is reported as 72.45%.
With `CCNC(C)CN1CCc2c(c(=O)oc3ccccc23)C1` (centres unmarked) [ONC0002199, ci923] the “% viability” value was 99.06%.
In the case of `CN(C)CCN1C(=O)c2cccc3cc(N)cc(c23)C1=O` [ONC0004718, amonafide], the “% viability” value is reported as 128.3%.
For `CCOc1ccc(Cc2cc([C@@H]3O[C@H](CO)[C@@H](O)[C@H](O)[C@H]3O)ccc2Cl)cc1` [ONC0005314, dapagliflozin], the “% viability” value was 78.54%.
With `CCNC(=O)C#Cc1ccc2c(c1)NC(=O)/C2=C(/Nc1ccc(CN(C)C)cc1)c1ccccc1` [ONC0004535, bi847325] the “% viability” value was 77.83%.
`Cc1cccc(Nc2nc(-c3ccncc3)cs2)c1` [ONC0004714, stf62247] was tested, and the “% viability” value was 102.8%.
In the case of `CN(C)CCC(c1ccccc1)c1ccccn1` (centres unmarked) [ONC0000600, pheniramine maleate], the “% viability” value is reported as 93.48%.
In the case of `CC(C)CCC[C@@H](C)[C@H]1CC[C@H]2[C@@H]3CC=C4C[C@@H](O)CC[C@]4(C)[C@H]3CC[C@]12C` [ONC0003909, cholesterol], the “% viability” value is reported as 75.66%.
`O=C(CN1CCN(Cc2ccc3c(c2)OCO3)CC1)N1c2ccccc2Sc2ccccc21` [ONC0003446, fenoverine] was tested, and the “% viability” value was 80.33%.
With `CCCCc1nn(-c2ccccc2C(F)(F)F)c(=O)n1Cc1ccc(-c2ccccc2S(=O)(=O)NC(=O)c2sccc2C)cc1` [ONC0003621, l161982] the “% viability” value was 69.37%.
For `CCSc1ccc2c(c1)N(CCCN1CCN(C)CC1)c1ccccc1S2` [ONC0002904, thiethylperazine], the “% viability” value was 105.9%.
`Cc1c(O)cccc1C(=O)N[C@@H](CSc1ccccc1)[C@H](O)CN1C[C@H]2CCCC[C@H]2C[C@H]1C(=O)NC(C)(C)C` [ONC0003474, nelfinavir mesylate] was tested, and the “% viability” value was 57.61%.
In the case of `O=[N+]([O-])c1cc(Cl)ccc1S(=O)(=O)N1CCN(Cc2ccccc2)CC1` [ONC0001663, rn1747], the “% viability” value is reported as 65.37%.
For `CCN(CC)C(=O)N1CCN(C)CC1` [ONC0000626, diethylcarbamazine citrate], the “% viability” value was 119.6%.
`O=C(O)c1cc(O)c(O)c(O)c1` [ONC0003325, gallic acid] was tested, and the “% viability” value was 58.9%.
In the case of `CCCCC#Cc1nc(NC)c2ncn([C@@H]3O[C@H](CO)[C@@H](O)[C@H]3O)c2n1` [ONC0002716, hemado], the “% viability” value is reported as 66.82%.
With `CCC(O)(CC(N)=O)c1ccccc1` (centres unmarked) [ONC0003599, 3hydroxy3phenylpentanamide] the “% viability” value was 105.2%.
In the case of `O=C(Nc1ccc2c(O)cc(S(=O)(=O)O)cc2c1)Nc1ccc2c(O)cc(S(=O)(=O)O)cc2c1` [ONC0003636, disodium 77carbonyldiiminobis4hydroxy2naphthalenesulfonate], the “% viability” value is reported as 82.53%.
